Results deposited as PubChem BioAssay AID652243 (Drosophila RNAi Screening Center, 2013)
Assay: 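Knock-downs that decrease or increase androgen receptor reporter signal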 (primary screen). Cell system: Drosophila S2R+ cells. Knock-down reagent: long dsRNA against Drosophila genes. Timing: 72 h (48 h, then 24 h hormone). Conditions: synthetic androgen R1881 at 10 nM for 24 h. Measurement: 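Per-well raw luminescence of the androgen-driven firefly reporter and of the Renilla control, two replicates each, without normalisation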. Scale: firefly reporter light: higher = more light from androgen-responsive reporter; Renilla control light: higher = more constitutive control signal (cell number, transfection). Hit rule: 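Across duplicate plates, a knock-down whose log firefly/Renilla ratio shifted a set fold down or up from the GFP/LacZ control mean was a hit; the downward cut appears as both 1.5 and 3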. Meaning of the calls: active = hit: reporter lowered or raised; inactive = no hit.
In all, the deposit lists about 24,000 reagents; this is a random part of those with a known target gene and a result. Of all reagents, 246 (1%) are marked active. 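Plates not normalised; calls are printed but the firefly/Renilla ratio behind them is not deposited; fold cut for lowering reported inconsistently.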 The raw values are shown without normalisation. The record does not give: the amount of reagent.

Atg101 [DRSC20020] — firefly reporter light, replicate 1 = 2.82e5; firefly reporter light, replicate 2 = 1.14e5; Renilla control light, replicate 1 = 1.00e6; Renilla control light, replicate 2 = 4.62e5; activity call = inactive
rho-6 [DRSC02588] — firefly reporter light, replicate 1 = 2.38e5; firefly reporter light, replicate 2 = 3.01e5; Renilla control light, replicate 1 = 1.77e6; Renilla control light, replicate 2 = 1.53e6; activity call = inactive
rho-6 [DRSC29070] — firefly reporter light, replicate 1 = 6.20e5; firefly reporter light, replicate 2 = 6.76e5; Renilla control light, replicate 1 = 1.46e6; Renilla control light, replicate 2 = 1.14e6; activity call = inactive
Pi4KIIalpha [DRSC12322] — firefly reporter light, replicate 1 = 46285; firefly reporter light, replicate 2 = 45974; Renilla control light, replicate 1 = 3.47e5; Renilla control light, replicate 2 = 3.96e5; activity call = inactive
Pi4KIIalpha [DRSC12323] — firefly reporter light, replicate 1 = 83206; firefly reporter light, replicate 2 = 63821; Renilla control light, replicate 1 = 2.03e6; Renilla control light, replicate 2 = 1.57e6; activity call = active
Pi4KIIalpha [DRSC29095] — firefly reporter light, replicate 1 = 3.97e5; firefly reporter light, replicate 2 = 6.88e5; Renilla control light, replicate 1 = 1.27e6; Renilla control light, replicate 2 = 1.38e6; activity call = inactive
Pi4KIIalpha [DRSC36914] — activity call = inactive
CG9733 [DRSC16549] — firefly reporter light, replicate 1 = 2.03e5; firefly reporter light, replicate 2 = 1.76e5; Renilla control light, replicate 1 = 2.72e6; Renilla control light, replicate 2 = 2.48e6; activity call = inactive

Laid out differently: results already given
gene knocked down	amplicon	firefly reporter light, replicate 1	firefly reporter light, replicate 2	Renilla control light, replicate 1	Renilla control light, replicate 2	activity call
Atg101	DRSC20020	2.82e5	1.14e5	1.00e6	4.62e5	inactive
rho-6	DRSC02588	2.38e5	3.01e5	1.77e6	1.53e6	inactive

Next entries follow:
kud [DRSC11086] — firefly reporter light, replicate 1 = 2.61e5; firefly reporter light, replicate 2 = 2.12e5; Renilla control light, replicate 1 = 2.36e6; Renilla control light, replicate 2 = 1.92e6; activity call = inactive
CG8641 [DRSC11028] — firefly reporter light, replicate 1 = 1.85e5; firefly reporter light, replicate 2 = 2.11e5; Renilla control light, replicate 1 = 2.16e6; Renilla control light, replicate 2 = 2.91e6; activity call = inactive
CG7148 [DRSC11802] — firefly reporter light, replicate 1 = 27965; firefly reporter light, replicate 2 = 37281; Renilla control light, replicate 1 = 3.23e5; Renilla control light, replicate 2 = 3.70e5; activity call = inactive
Pex11ab [DRSC07145] — firefly reporter light, replicate 1 = 36713; firefly reporter light, replicate 2 = 74410; Renilla control light, replicate 1 = 1.06e6; Renilla control light, replicate 2 = 1.06e6; activity call = inactive
CG11755 [DRSC14374] — firefly reporter light, replicate 1 = 1.06e5; firefly reporter light, replicate 2 = 1.56e5; Renilla control light, replicate 1 = 2.57e6; Renilla control light, replicate 2 = 2.48e6; activity call = inactive
CG11755 [DRSC26076] — firefly reporter light, replicate 1 = 3.00e5; firefly reporter light, replicate 2 = 2.89e5; Renilla control light, replicate 1 = 8.30e5; Renilla control light, replicate 2 = 7.42e5; activity call = inactive
CG15870 [DRSC06588] — firefly reporter light, replicate 1 = 3.42e5; firefly reporter light, replicate 2 = 1.62e5; Renilla control light, replicate 1 = 1.67e6; Renilla control light, replicate 2 = 1.67e6; activity call = inactive
CG15870 [DRSC26344] — firefly reporter light, replicate 1 = 2.25e5; firefly reporter light, replicate 2 = 2.79e5; Renilla control light, replicate 1 = 7.42e5; Renilla control light, replicate 2 = 8.21e5; activity call = inactive
Sr-CI [DRSC00790] — firefly reporter light, replicate 1 = 8.85e5; firefly reporter light, replicate 2 = 7.99e5; Renilla control light, replicate 1 = 3.15e6; Renilla control light, replicate 2 = 4.27e6; activity call = inactive
Sr-CI [DRSC23942] — firefly reporter light, replicate 1 = 2.93e5; firefly reporter light, replicate 2 = 2.61e5; Renilla control light, replicate 1 = 7.78e5; Renilla control light, replicate 2 = 4.98e5; activity call = inactive
garz [DRSC07193] — firefly reporter light, replicate 1 = 2.70e5; firefly reporter light, replicate 2 = 2.85e5; Renilla control light, replicate 1 = 1.37e6; Renilla control light, replicate 2 = 1.44e6; activity call = inactive
ReepB [DRSC07150] — firefly reporter light, replicate 1 = 6.83e5; firefly reporter light, replicate 2 = 9.28e5; Renilla control light, replicate 1 = 2.07e6; Renilla control light, replicate 2 = 2.10e6; activity call = inactive
ReepB [DRSC27133] — firefly reporter light, replicate 1 = 2.35e5; firefly reporter light, replicate 2 = 2.52e5; Renilla control light, replicate 1 = 4.28e5; Renilla control light, replicate 2 = 4.76e5; activity call = inactive
